These are yes or no findings as the source states them, for the method shown. Binding seen in cells or lysates may run through a third protein. Some results given as binding are weak or reduced against the parent protein; the word gives no strength. Sequences can lack the tags named with a protein.
Molecular target: T1, mEOMES-V5 (mouse EOMES expressed from pcDNA3-mEOMES-V5 in 293 cells) (mouse) (UniProt O54839)
T1 sequence: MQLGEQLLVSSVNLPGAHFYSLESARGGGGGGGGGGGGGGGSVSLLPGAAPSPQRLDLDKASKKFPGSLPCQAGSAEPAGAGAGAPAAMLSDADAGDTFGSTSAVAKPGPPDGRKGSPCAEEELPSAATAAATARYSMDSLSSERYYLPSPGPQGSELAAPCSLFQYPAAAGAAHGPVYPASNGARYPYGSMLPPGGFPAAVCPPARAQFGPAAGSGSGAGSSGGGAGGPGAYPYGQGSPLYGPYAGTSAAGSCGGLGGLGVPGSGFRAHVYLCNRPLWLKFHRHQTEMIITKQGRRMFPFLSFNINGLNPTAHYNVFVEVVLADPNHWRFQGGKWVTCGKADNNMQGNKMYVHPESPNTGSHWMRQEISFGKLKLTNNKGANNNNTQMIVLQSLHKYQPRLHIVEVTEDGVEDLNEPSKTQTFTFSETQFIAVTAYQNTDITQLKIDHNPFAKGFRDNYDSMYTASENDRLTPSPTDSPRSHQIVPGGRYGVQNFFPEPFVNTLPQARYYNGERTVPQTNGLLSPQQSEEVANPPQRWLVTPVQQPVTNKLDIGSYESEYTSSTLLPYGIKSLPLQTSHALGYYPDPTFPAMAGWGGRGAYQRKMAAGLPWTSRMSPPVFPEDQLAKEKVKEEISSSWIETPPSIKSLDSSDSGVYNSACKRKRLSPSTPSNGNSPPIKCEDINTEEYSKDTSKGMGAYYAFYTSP
Test: co-IP; lysates of 293 cells transfected with pcDNA3-mEOMES-V5; IP with anti-EOMES or anti-BRG1 overnight at 4 °C, protein G magnetic beads; 50 mM Tris-HCl pH 7.4, 120 mM NaCl, 1 mM EDTA; immunoblot for BRG1 or EOMES

Sequences of proteins named here, by UniProt entry; tags and fusion partners are left off.
UniProt P51532: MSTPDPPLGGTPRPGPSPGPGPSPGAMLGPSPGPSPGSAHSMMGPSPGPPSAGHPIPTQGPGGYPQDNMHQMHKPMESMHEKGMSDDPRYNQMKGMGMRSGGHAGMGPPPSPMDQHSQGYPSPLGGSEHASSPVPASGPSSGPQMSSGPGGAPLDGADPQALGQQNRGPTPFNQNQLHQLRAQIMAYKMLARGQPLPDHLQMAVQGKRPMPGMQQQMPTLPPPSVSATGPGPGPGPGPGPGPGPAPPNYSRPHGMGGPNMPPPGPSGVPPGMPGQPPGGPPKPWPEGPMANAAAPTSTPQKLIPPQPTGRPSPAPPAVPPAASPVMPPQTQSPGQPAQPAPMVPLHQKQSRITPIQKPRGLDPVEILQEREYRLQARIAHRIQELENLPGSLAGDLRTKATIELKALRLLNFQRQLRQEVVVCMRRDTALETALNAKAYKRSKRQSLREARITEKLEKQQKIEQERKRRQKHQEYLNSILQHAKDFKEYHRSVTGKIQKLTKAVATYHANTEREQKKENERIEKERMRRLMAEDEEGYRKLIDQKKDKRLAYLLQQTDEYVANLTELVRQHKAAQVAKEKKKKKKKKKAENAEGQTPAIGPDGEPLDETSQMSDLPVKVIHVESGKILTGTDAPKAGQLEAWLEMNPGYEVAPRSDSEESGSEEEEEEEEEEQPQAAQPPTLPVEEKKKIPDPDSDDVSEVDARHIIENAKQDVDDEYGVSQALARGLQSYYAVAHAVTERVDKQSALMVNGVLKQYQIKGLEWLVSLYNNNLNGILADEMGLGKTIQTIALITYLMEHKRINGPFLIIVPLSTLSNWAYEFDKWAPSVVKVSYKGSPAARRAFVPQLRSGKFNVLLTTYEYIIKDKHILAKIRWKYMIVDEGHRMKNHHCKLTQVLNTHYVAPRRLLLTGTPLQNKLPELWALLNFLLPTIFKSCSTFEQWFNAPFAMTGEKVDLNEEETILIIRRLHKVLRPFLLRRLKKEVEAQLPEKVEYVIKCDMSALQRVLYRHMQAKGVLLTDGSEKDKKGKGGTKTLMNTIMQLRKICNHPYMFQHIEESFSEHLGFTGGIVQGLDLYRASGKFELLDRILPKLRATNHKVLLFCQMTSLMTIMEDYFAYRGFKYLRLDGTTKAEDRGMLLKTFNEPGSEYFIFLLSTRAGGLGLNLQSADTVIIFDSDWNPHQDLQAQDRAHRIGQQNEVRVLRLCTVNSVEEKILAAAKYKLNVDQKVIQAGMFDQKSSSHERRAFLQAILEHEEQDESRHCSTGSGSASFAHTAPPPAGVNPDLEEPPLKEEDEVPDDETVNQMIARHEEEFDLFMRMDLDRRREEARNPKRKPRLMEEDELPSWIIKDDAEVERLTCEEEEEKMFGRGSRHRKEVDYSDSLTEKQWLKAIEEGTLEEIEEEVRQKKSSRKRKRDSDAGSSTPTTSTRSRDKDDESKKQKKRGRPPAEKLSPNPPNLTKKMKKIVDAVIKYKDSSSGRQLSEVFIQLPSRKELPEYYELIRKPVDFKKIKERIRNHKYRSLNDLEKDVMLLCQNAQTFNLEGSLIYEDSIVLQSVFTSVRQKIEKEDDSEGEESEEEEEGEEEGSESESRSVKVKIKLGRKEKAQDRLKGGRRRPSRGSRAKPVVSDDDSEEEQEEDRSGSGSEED

Question: Which binding does the source give for “BRG1, endogenous, in 293 cells (from UniProt P51532 1-1647)” here?
Answer: binds
